Experimental data as given in PMC8550248.
Results are given in words; binding and its absence hold for the method and conditions named. In cells and extracts the contact can be indirect. These calls come from enrichment with a bait or labelling near it, and not all partners need be listed. No binding means not detected with the bait.

Target: SFB-p53 (amino acids 100 to 355) (human) (UniProt P04637)
Assay: affinity purification with mass spectrometry; nuclear extract (BC100 buffer) of H1299 stably expressing SFB-p53 (100-355); Streptavidin beads, biotin elution, then S protein beads, glycine elution; LC-MS/MS

binding: no binding
B1: DiGeorge syndrome critical region 8 (DGCR8) (endogenous) (protein, UniProt Q8WYQ5 1-773)
chain: METDESPSPLPCGPAGEAVMESRARPFQALPREQSPPPPLQTSSGAEVMDVGSGGDGQSELPAEDPFNFYGASLLSKGSFSKGRLLIDPNCSGHSPRTARHAPAVRKFSPDLKLLKDVKISVSFTESCRSKDRKVLYTGAERDVRAECGLLLSPVSGDVHACPFGGSVGDGVGIGGESADKKDEENELDQEKRVEYAVLDELEDFTDNLELDEEGAGGFTAKAIVQRDRVDEEALNFPYEDDFDNDVDALLEEGLCAPKKRRTEEKYGGDSDHPSDGETSVQPMMTKIKTVLKSRGRPPTEPLPDGWIMTFHNSGVPVYLHRESRVVTWSRPYFLGTGSIRKHDPPLSSIPCLHYKKMKDNEEREQSSDLTPSGDVSPVKPLSRSAELEFPLDEPDSMGADPGPPDEKDPLGAEAAPGALGQVKAKVEVCKDESVDLEEFRSYLEKRFDFEQVTVKKFRTWAERRQFNREMKRKQAESERPILPANQKLITLSVQDAPTKKEFVINPNGKSEVCILHEYMQRVLKVRPVYNFFECENPSEPFGASVTIDGVTYGSGTASSKKLAKNKAARATLEILIPDFVKQTSEEKPKDSEELEYFNHISIEDSRVYELTSKAGLLSPYQILHECLKRNHGMGDTSIKFEVVPGKNQKSEYVMACGKHTVRGWCKNKRVGKQLASQKILQLLHPHVKNWGSLLRMYGRESSKMVKQETSDKSVIELQQYAKKNKPNLHILSKLQEEMKRLAEEREETRKKPKMSIVASAQPGGEPLCTVDV
